# Reference: US20050234073A1, “Methods of inhibiting inflammation” (priority 2003, published 2005)
# Assay: Assessment of plasma lipids and body weight after pIpC treatment
# Format: in vivo, mouse
# Procedure: Female 6-8 week-old of both MTP^pflox/floxMx1Cre mice and WT B6 mice that had been injected intraperitoneally with either PBS as control or 500 μg polyinosinic-polycytidylic ribonucleic acid (pIpC, Sigma, St. Louis, Mo.) in PBS every other day for a total of four doses were sacrificed one or 10 days after the last pIpC injection at which time sera was obtained from peripheral blood. The serum was subjected to total cholesterol and triglyceride assays at the clinical laboratory of Brigham and Women's Hospital (Boston, Mass.).
# To further substantiate a direct biochemical relationship between CD1d and MTP, the effects on CD1d expression and function was examined in a conditional MTP-deficient mouse model which contains a “floxed” MTPp gene (MTPp^flox/flox) that had been intercrossed with mice expressing Mx1 promoter controlled, Cre-recombinase (Raabe, M. et al. J. Clin. Invest. 103, 1287-1298 (1999); Bjorkegren, J., Beigneux, A., Bergo, M. O., Maher, J. J. & Young, S. G. J. Biol. Chem. 277, 5476-5483 (2002)). The Mx1 promoter is induced by interferon-inducing substances such as polyinosinic-polycytidylic acid (pIpC) (Raabe, M. et al. J. Clin. Invest. 103, 1287-1298 (1999); Bjorkegren, J., Beigneux, A., Bergo, M. O., Maher, J. J. & Young, S. G. J. Biol. Chem. 277, 5476-5483 (2002); Ralf, K., Schwenk, F., Aguet, M. & Rajewsky, K. Science. 269, 1427-1429 (1995)) such that treatment of MTPp^flox/floxMx1Cre mice with pIpC leads to deletion of the MTPp gene (MTPp^Δ/Δ) primarily within the liver, spleen and intestine providing a degree of tissue specificity to the gene deletion. As previously reported, treatment of 6-10 week old MTPp^flox/floxMx1Cre mice (or MTP^flox/floxMx1Cre mice) with pIpC caused progressive hepatic steatosis (1C) and decreases in serum triglyceride and cholesterol levels (Table 5) in association with decreased MTP mRNA levels as defined by RT-PCR (FIG. 1D) and protein levels (FIG. 1E) in liver and colon.
substance,measurement,setting,value
polyinosinic-polycytidylic ribonucleic acid [pIpC],Body weight,"C57BL/6J mice, 1 day after treatment",21.5 ± 0.7 g
same,Body weight,"C57BL/6J mice, 10 days after treatment",20.7 ± 0.7 g
same,Body weight,"MTPflox/floxMx1Cre mice, 1 day after treatment",21.8 ± 1.0 g
same,Body weight,"MTPflox/floxMx1Cre mice, 10 days after treatment",21.8 ± 1.0 g
